Drawing on publication doi:10.1101/2025.11.10.25339594, this text covers binding for one molecule.

Results are given in words; binding and its absence hold for the method and conditions named. In cells and extracts the contact can be indirect. Some entries that bind do so weakly or less than the wild type.

For this experiment, the target named is p21 (human (endogenous in HNSCC cell lines)), P38936. Kind of experiment: co-IP. The note with it: remark: other sources report otherwise.

B1: T172-phosphorylated CDK4, P11802 1-303 (enzyme)
chain: MATSRYEPVAEIGVGAYGTVYKARDPHSGHFVALKSVRVPNGGGGGGGLPISTVREVALLRRLEAFEHPNVVRLMDVCATSRTDREIKVTLVFEHVDQDLRTYLDKAPPPGLPAETIKDLMRQFLRGLDFLHANCIVHRDLKPENILVTSGGTVKLADFGLARIYSYQMALTPVVVTLWYRAPEVLLQSTYATPVDMWSVGCIFAEMFRRKPLFCGNSEADQLGKIFDLIGLPPEDDWPRDVSLPRGAFPPRGPRPVQSVVPEMEESGAQLLLEMLTFNPHKRISAFRALQHSYLHKDEGNPE
modifications: here or on the partner: phosphothreonine at 172 (T172)
Turning to B1, the binding entry is “binds”.
